Further values from the same series stand in other lists.
Test: Assay (I): Determination of Solubility (96-well plate, pH 3.0-11.0, organic solvent 0-70% w/w, UV absorption at 280 nm)
Format: physicochemical
Conditions: MeCN 19.1% w/w, Method 1
Method: Assay (I): Determination of Solubility
96-Well Plate Preparation
96-well plates containing target peptide in a solid form were prepared in one of two ways:
Method 1 (evaporation): Addition of 100 μl stock solution of said peptide at a concentration of 4-6 mg/ml to each well of a 96-well half area plate (150 μl well size). Subsequently the solvent was evaporated by applying a vacuum until the solvent was completely removed.
Method 2 (precipitation): Addition of a certain volume of a stock solution of said peptide containing to each well of a 96-well half area plate followed by the addition of a certain volume of concentrated phosphoric acid to obtain a pH of 4.6 followed by addition of a certain volume of ethanol resulting in a final ethanol concentration of 20% v/v. Subsequently the plate was stored at 4° C. for 1 h and then centrifuged at 4,000 rpm for 20 min. Finally the supernatant was removed. The concentration of the stock solution was chosen in a way that the final amount of peptide after supernatant removal was >0.4 mg per well.
In both cases the stock solution was prepared by adding de-ionized water to a certain amount of powder of said peptide followed by a stepwise addition of small amounts of a concentrated sodium hydroxide solution until said peptide was completely in solution.
To determine solubility of a target peptide at different pH and organic solvent concentrations, two different buffer systems were used in independent experiments to cover the whole range from pH 3.0 to pH 11.0. Buffer system 1 covers pH 3.0-7.5 and buffer system 2 covers pH 7.5-11.0. For each buffer system 96 different solvent compositions were premixed in the following way: • 1. A low pH buffer (adjusted to either pH 3.0 or pH 7.5) and a high pH buffer (adjusted to either pH 7.5 or pH 11.0) were mixed at 8 different ratios to obtain values between pH 3.0 and pH 7.5 or pH 7.5 and pH 11.0, respectively. The total volume after mixing was 300 μl. • 2. 12 different amounts of organic solvent were then added to these buffers to obtain organic solvent (e.g. ethanol) concentrations between 0 and 70% w/w. • 3. Water was then added to obtain a total weight of 1.0 g of solvent in each well.
After preparing the 96 different solvent systems, 100 μl of each system was transferred to the 96-well plate containing the solid form of the target peptide (prepared as described in the section “96-well plate preparation”). The plate was then stored at a given temperature (between 5° C. and 70° C.) for a given time on a rotating shaker set to 400 rpm. At regular time intervals the plate was centrifuged (4,000 rpm for 10 min) and a 10 μl sample was taken from each well. The samples were then analysed by UV absorption at 280 nm for peptide quantification. Peptide concentration results are given as UV absorption at 280 nm of the sample subtracted UV absorption at 280 nm of a well comprising 10 μl water.
The buffers used were as follows: • Buffer system 1 (for the pH range from pH 3.0-7.5)
• Buffer system 2 (for the pH ranae from pH 7.5-11.0)
Solubility of liraglutide was determined using Assay (I) described herein. Liraglutide was prepared using Method 1 (evaporation) or Method 2 (precipitation) as described in subsection “96-well plate preparation”.

- Peptide concentration after 180 min (pH 3.0, 5° C.): 1.4 mg/mL
- Peptide concentration after 24 h (pH 3.0, 5° C.): 1.5 mg/mL
- Peptide concentration after 5 min (pH 3.0, 70° C.): 1.8 mg/mL
- Peptide concentration after 180 min (pH 3.0, 70° C.): 1.1 mg/mL
- Peptide concentration after 5 min (pH 3.0, RT): 1.0 mg/mL
- Peptide concentration after 180 min (pH 3.0, RT): 1.6 mg/mL
- Peptide concentration after 24 h (pH 3.0, RT): 1.6 mg/mL
- Peptide concentration after 5 min (pH 3.6, 5° C.): 0.1 mg/mL
- Peptide concentration after 180 min (pH 3.6, 5° C.): 0.2 mg/mL
- Peptide concentration after 24 h (pH 3.6, 5° C.): 0.2 mg/mL
- Peptide concentration after 5 min (pH 3.6, 70° C.): 0.1 mg/mL
- Peptide concentration after 180 min (pH 3.6, 70° C.): 0.0 mg/mL
- Peptide concentration after 5 min (pH 3.6, RT): 0.1 mg/mL
- Peptide concentration after 180 min (pH 3.6, RT): 0.1 mg/mL
- Peptide concentration after 24 h (pH 3.6, RT): 0.0 mg/mL
- Peptide concentration after 5 min (pH 4.3, 5° C.): 0.1 mg/mL
- Peptide concentration after 180 min (pH 4.3, 5° C.): 0.1 mg/mL
- Peptide concentration after 24 h (pH 4.3, 5° C.): 0.1 mg/mL
- Peptide concentration after 5 min (pH 4.3, 70° C.): 0.1 mg/mL
- Peptide concentration after 180 min (pH 4.3, 70° C.): 0.1 mg/mL
- Peptide concentration after 5 min (pH 4.3, RT): 0.1 mg/mL
- Peptide concentration after 180 min (pH 4.3, RT): 0.1 mg/mL
- Peptide concentration after 24 h (pH 4.3, RT): 0.0 mg/mL
- Peptide concentration after 5 min (pH 4.9, 5° C.): 0.1 mg/mL
- Peptide concentration after 180 min (pH 4.9, 5° C.): 0.1 mg/mL
- Peptide concentration after 24 h (pH 4.9, 5° C.): 0.2 mg/mL
- Peptide concentration after 5 min (pH 4.9, 70° C.): 0.1 mg/mL
- Peptide concentration after 180 min (pH 4.9, 70° C.): 0.1 mg/mL
- Peptide concentration after 5 min (pH 4.9, RT): 0.1 mg/mL
- Peptide concentration after 180 min (pH 4.9, RT): 0.1 mg/mL
- Peptide concentration after 24 h (pH 4.9, RT): 0.0 mg/mL
- Peptide concentration after 5 min (pH 5.6, 5° C.): 0.2 mg/mL
- Peptide concentration after 180 min (pH 5.6, 5° C.): 0.1 mg/mL
- Peptide concentration after 24 h (pH 5.6, 5° C.): 0.2 mg/mL
- Peptide concentration after 5 min (pH 5.6, 70° C.): 0.2 mg/mL
- Peptide concentration after 180 min (pH 5.6, 70° C.): 0.1 mg/mL
- Peptide concentration after 5 min (pH 5.6, RT): 0.6 mg/mL
- Peptide concentration after 180 min (pH 5.6, RT): 0.1 mg/mL
- Peptide concentration after 24 h (pH 5.6, RT): 0.1 mg/mL
- Peptide concentration after 5 min (pH 6.2, 5° C.): 0.7 mg/mL
- Peptide concentration after 180 min (pH 6.2, 5° C.): 0.6 mg/mL
- Peptide concentration after 24 h (pH 6.2, 5° C.): 0.4 mg/mL
- Peptide concentration after 5 min (pH 6.2, 70° C.): 1.3 mg/mL
- Peptide concentration after 180 min (pH 6.2, 70° C.): 0.7 mg/mL
- Peptide concentration after 5 min (pH 6.2, RT): 0.8 mg/mL
- Peptide concentration after 180 min (pH 6.2, RT): 0.8 mg/mL
- Peptide concentration after 24 h (pH 6.2, RT): 0.8 mg/mL
- Peptide concentration after 5 min (pH 6.9, 5° C.): 2.5 mg/mL
- Peptide concentration after 180 min (pH 6.9, 5° C.): >4.0 mg/mL
- Peptide concentration after 24 h (pH 6.9, 5° C.): >4.0 mg/mL
Compound: CCCCCCCCCCCCCCCC(=O)N[C@@H](CCC(=O)NCCCC[C@H](NC(=O)[C@H](C)NC(=O)[C@H](C)NC(=O)[C@H](CCC(N)=O)NC(=O)CNC(=O)[C@H](CCC(=O)O)NC(=O)[C@H](CC(C)C)NC(=O)[C@H](Cc1ccc(O)cc1)NC(=O)[C@H](CO)NC(=O)[C@H](CO)NC(=O)[C@@H](NC(=O)[C@H](CC(=O)O)NC(=O)[C@H](CO)NC(=O)[C@@H](NC(=O)[C@H](Cc1ccccc1)NC(=O)[C@@H](NC(=O)CNC(=O)[C@H](CCC(=O)O)NC(=O)[C@H](C)NC(=O)[C@@H](N)Cc1cnc[nH]1)[C@@H](C)O)[C@@H](C)O)C(C)C)C(=O)N[C@@H](CCC(=O)O)C(=O)N[C@@H](Cc1ccccc1)C(=O)N[C@H](C(=O)N[C@@H](C)C(=O)N[C@@H](Cc1c[nH]c2ccccc12)C(=O)N[C@@H](CC(C)C)C(=O)N[C@H](C(=O)N[C@@H](CCCNC(=N)N)C(=O)NCC(=O)N[C@@H](CCCNC(=N)N)C(=O)NCC(=O)O)C(C)C)[C@@H](C)CC)C(=O)O [liraglutide, Arg34,Lys26-(N-epsilon-(gamma-L-glutamyl(N-alfa-hexadecanoyl)))-GLP-1(7-37)]

— patent US20210261642A1, “SOLUBILITY OF GLP-1 PEPTIDE” (Novo Nordisk A/S, priority 2017, published 2021)
